Data taken from PMC12040169 (PLOS Biology, 2025).
Some of the results follow.

System: T1, CTL2-GFP (C. trachomatis L2/434/Bu, GFP-expressing)
T1 construct: L2/434/Bu, GFP-expressing
Set-up: species or system HeLa; Intracellular C. trachomatis growth in HeLa cells, bulk GFP fluorescence relative to DMSO
Conditions: bulk GFP, single well; 28.5 h, 10 µM; inhibitor

In order of falling “% of control remaining” value:
1. O=C(NCC1Cc2ccccc2O1)c1cccc(NC(=O)c2ccco2)c1 (centres unmarked) [CBK298302]  158.441%
2. Cc1ccc(S(=O)(=O)N2CCOCC2)cc1C(=O)Oc1cccc2cccnc12 [CBK269726]  157.933%
3. O=C(O)CCC(=O)NCc1ccc2c(c1)OCO2 [CBK286930]  156.806%
4. CCOC(=O)Cn1nc(CC)n2c(cc3sccc32)c1=O [CBK284073]  156.143%
5. CC(=O)N(C)c1nc(-c2cccc(N(C)C)c2)ccc1C(=O)N(C)C [CBK076555]  154.464%
6. CCCC(=O)NCCn1ncc(-c2ccncc2)c1C1CC1 [CBK282116]  153.605%
7. O=C(NCc1nnc(-c2cccs2)o1)C1(c2ccccc2F)CC1 [CBK284637]  146.831%
8. CN(C)CCn1c(=O)[nH]c2ncc(-c3cc(C(F)(F)F)cc(C(F)(F)F)c3)nc21 [CBK065028]  146.227%
9. CCCC(=O)Nc1ccc(C(=O)O)cc1NC(=O)CCC [CBK286939]  143.912%
10. Cc1ccc(S(=O)(=O)Nc2nc(C)cs2)cc1 [CBK102326]  142.561%
11. NS(=O)(=O)c1ccc(NC(=O)CSc2cccc3ccccc23)cc1 [CBK268987]  137.448%
12. COc1cc(CNc2ncc(-c3ccc(N4CCOCC4)cc3)n3ccnc23)cc(OC)c1OC [CBK091219]  136.233%
13. CC(C)CN1CC(C(=O)N(C)CC2OCCc3ccccc32)CC1=O (centres unmarked) [CBK282093]  135.72%
14. CC1CCCN(Cc2c(C3CCOCC3)[nH]c3ncccc23)C1 (centres unmarked) [CBK284687]  134.353%
15. COC(C)CN(C)C(=O)c1cc2cc(C)ccc2nc1C (centres unmarked) [CBK282036]  131.837%
16. CCC(CN1CCOCC1)NC(=O)Cc1coc2cc(C)cc(C)c12 (centres unmarked) [CBK282812]  131.456%
17. COc1ncc(-c2cncc(N3CCN(c4ccc(OC)c(OC)c4)CC3)n2)c(OC)n1 [CBK065169]  130.018%
18. CC(NC(=O)C1(Cn2ccnc2)CC1)c1cccnc1 (centres unmarked) [CBK306812]  129.543%
19. O/N=C1/CCCCCC1NO (centres unmarked) [CBK264368A]  128.092%
20. CN(CC(=O)NNC(=O)c1ccc(C(C)(C)C)cc1)S(=O)(=O)c1cc(Cl)ccc1Cl [CBK267376]  127.916%
21. CCOC(=O)c1cn([C@H](CO)CCSC)cc(Oc2ccccc2)c1=O [CBK307349]  126.916%
22. O=C(Nc1ccccc1)C(N1CCCCC1)N1CCCCC1 [CBK263425]  121.925%
23. CN1CCN(c2ccccc2NC(=S)NC(=O)c2ccco2)CC1 [CBK267909]  121.441%
24. CC(Oc1ccc(-c2ccccc2)cc1)C(=O)Nc1ccc(S(N)(=O)=O)cc1 (centres unmarked) [CBK267979]  118.625%
25. CCCCC(c1cccnc1)N(C)C(=O)c1cccn(C)c1=O (centres unmarked) [CBK307496]  117.137%
26. O=C(NC1(c2ccc(F)cc2)CCCC1)c1cnn2cccnc12 [CBK283612]  116.843%
27. O=C(CN1CCN(c2ccccc2)CC1)Nc1ccc([N+](=O)[O-])cc1C(=O)c1ccccc1 [CBK265799]  116.842%
28. CN(C(=O)C1CCc2nn(C)c(=O)n2C1)C1Cc2ccccc2C1 (centres unmarked) [CBK307108]  113.959%
29. Cn1c(=O)c2c(nc(CN3CCCCC3)n2CCCO)n(C)c1=O [CBK269280]  111.846%
30. O=C(Cc1ccc(-c2ccccc2)cc1)N1CCc2nc3ccccc3c(=O)n2CC1 [CBK286312]  111.434%
31. COc1cc(Nc2cncc(-c3ccc(N)cc3)n2)cc(OC)c1OC [CBK065642]  110.363%
32. CCn1cc(C(=O)NN)c(=O)c2cc(F)c(N3CCCCCC3)cc21 [CBK307145]  110.313%
33. CC(C)NCC(O)COCc1ccc(Cl)cc1 (centres unmarked) [CBK261406C]  109.734%
34. Cc1oc2c(c1CC(=O)N(C)CCN(C)C)C(=O)CC(C)(C)C2 [CBK282171]  109.493%
35. CC(NC(=O)CC1(N2CCOCC2)CCCC1)c1cccc(C#N)c1 (centres unmarked) [CBK305320]  108.625%
36. O=C(CN1CCC(c2cncc(-c3cccc(C(F)(F)F)c3)n2)CC1)N1CCCC1 [CBK286152]  103.782%
37. COc1ccc(C2CCN(CC(=O)N3CCCC3)CC2)cc1 [CBK283561]  101.361%
38. COCCNC(=O)[C@@H](C)C1CC[C@@]2(C)CC[C@H](NS(C)(=O)=O)[C@@H](C)[C@@H]2[C@H]1O (some centres unmarked) [CBK289457]  100.572%
39. Brc1ccc(CN2CCN(Cc3c[nH]c4ccccc34)CC2)cc1 [CBK027622]  100.256%
40. O=[N+]([O-])c1ccccc1/C=C/CN1CCN(C/C=C/c2ccccc2)CC1 [CBK261864]  100%
41. O=C(O)c1ccc(/C=N/NC(=O)C2COc3ccccc3O2)cc1 (centres unmarked) [CBK261481]  100%
42. COc1cc(Br)c(/C=C(/C#N)C(=O)Nc2ccc(O)cc2)cc1OC [CBK262733]  100%
43. CCCCNC(=O)c1ccc2nc(CC)c(N(C)CCC(C)C)n2c1 [CBK145477]  95.1597%
44. Cc1cnc2c(c1)cc(C1CCOCC1)n2CC(=O)NC1CCCC1 [CBK284755]  94.3647%
45. CC(=O)c1ccc(CN2CCCN(S(=O)(=O)c3ccc(C(=O)c4ccccc4)cc3)CC2)cc1 [CBK062764]  94.1776%
46. O=C(NCc1ccccn1)c1ccc(NS(=O)(=O)c2cccc(Cl)c2)cc1 [CBK267249]  93.5625%
47. COc1cccc(Nc2cc(-c3ccco3)ncn2)c1 [CBK090740]  91.8039%
48. CCCC1=NN=C(c2cc(C(F)(F)F)ccc2C(F)(F)F)C1C(=O)OCC (centres unmarked) [CBK103527]  90.4763%
49. Cc1nn(CCCC(=O)Nc2sc3c(c2C#N)CCC(C(C)(C)C)C3)c(C)c1[N+](=O)[O-] (centres unmarked) [CBK268982]  89.782%
50. O=C(O)c1cccc(N2C(=O)C3C4C=CC(C3C2=O)C2C(=O)N(c3cccc(C(=O)O)c3)C(=O)C42)c1 (centres unmarked) [CBK261495]  86.4331%
